These are yes or no findings as the source states them, for the method shown. In cells and extracts the contact can be indirect. These calls come from enrichment with a bait or labelling near it, and not all partners need be listed.
B1: Ifitm2 (protein, UniProt Q99J93 1-144)
chain: MSHNSQAFLSTNAGLPPSYETIKEEYGVTELGEPSNSAVVRTTVINMPREVSVPDHVVWSLFNTLFFNACCLGFVAYAYSVKSRDRKMVGDVVGAQAYASTAKCLNISSLIFSILMVIICIIIFSTTSVVVFQSFAQRTPHSGF
B2: Rtn3 (reticulon family) (protein, UniProt Q9ES97 1-964)
chain: MAESSAATQSPSVSSSSSGAEPSALGGGGGSPGACPALGAKSCGSSCADSFVSSSSSQPVSIFSTSQAGLSSLCSDEPPSKSMTSSFLSSSEIHNPDPTTPLGEKSETLGSQFVLAKGKDPLVLLDKKKLDSPQGTNKDRVDAPVSLATGIPCSHPSIPDSFPEQPAFLSKEIGPAEEWVVKDQEPKNPNKVPDGEDRSALDFGQSKAEHICTYSLSPSELPVASVEKDSPESPFEVIIDKATFDREFKDLYKENPNDLGGWAAHGDRESPADLLEMNDKLFPLRNKEAGRYPSSVLLGRQFSHTTAALEEVSRCVNDMHNFTNEILTWDLDPQAKQQANKTSCTTESTGLDRSELRSEIPVINLKTNPQQKMPVCSFNGSTPITKSTGDWTEAFTEGKPVRDYLSSTKEAGGNGVPGSSQLHSELPGSMPEKWVSGSGAATVEVTLPNLRGAWPNSVMGEVTEVDSSGESDDTVIEDITEKPDSLPSAAAKTSEREIKETPSRETVRSEMCENSEQPQAQPETPTQKSLEGEVASQVPNTLNEVTPEKLDMTNNPKVCSAAPPSVLNETGFSLTVPASAKLESLLGKYVEDTDGSSPEDLMAVLTGAEEKGIVDKEEGDVLEAVLEKIADFKNTLPVELLHESELSGSETKNIKSKYSEDSRETTGGAPTMSPDLEQEQLTIRAIKELGERQAEKVQDEGISSGGKLKQTFAPQSGPQSSSDILEHTDVKTGSDLGIPKNPTIIKNTRIDSISSLTKTEMVNKNVLARLLSDFPVHDLIFWRDVKKTGFVFGTTLIMLLSLAAFSVISVVSYLILALLSVTISFRVYKSVIQAVQKSEEGHPFKAYLDVDITLSSEAFHNYMNAAMVHVNKALKLIIRLFLVEDLVDSLKLAVFMWLMTYVGAVFNGITLLILAELLVFSVPIVYEKYKTQIDHYVGIARDQTKSIVEKIQAKLPGIAKKKAE
B3: PRA1 family protein 3 (Arl6ip5, Praf3) (protein, UniProt Q8R5J9 1-188)
chain: MDVNLAPLRAWDDFFPGSDRFARPDFRDISKWNNRVVSNLLYYQTNYLVVAAMMISVVGFLSPFNMILGGVIVVLVFMGFVWAAHNKDILRRMKKQYPTAFVMVVMLASYFLISMFGGVMVFVFGITLPLLLMFIHASLRLRNLKNKLENKMEGIGLKKTPMGIILDALEQQEDNINKFADYISKARE
B4: Ifitm1 (protein, UniProt Q9D103 1-106)
chain: MPKEQQEVVVLGSPHISTSATATTINMPEISTPDHVVWSLFNTLFMNFCCLGFVAYAYSVKSRDRKMVGDTTGAQAFASTAKCLNISSLFFTILTAIVVIVVCAIR

Amino acid sequences for entries named in this document (tags omitted).
UniProt Q9CQW9: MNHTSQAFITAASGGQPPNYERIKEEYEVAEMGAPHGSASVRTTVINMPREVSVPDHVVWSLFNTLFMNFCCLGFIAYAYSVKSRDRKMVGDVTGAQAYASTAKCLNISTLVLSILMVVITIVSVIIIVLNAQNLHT
UniProt Q60870: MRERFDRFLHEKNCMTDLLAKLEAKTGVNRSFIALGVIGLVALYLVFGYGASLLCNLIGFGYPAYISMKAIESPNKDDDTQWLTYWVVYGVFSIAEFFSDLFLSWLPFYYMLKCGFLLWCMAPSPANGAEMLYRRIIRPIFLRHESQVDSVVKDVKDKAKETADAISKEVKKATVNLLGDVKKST

Molecular target: Interferon induced transmembrane protein 3 (Ifitm3) (mouse (endogenous in BM-DCs)) (UniProt Q9CQW9)
Test: affinity purification with mass spectrometry

Row | Molecule | binding
1 | receptor enhancing expression protein 5 (Reep5) (from UniProt Q60870 1-185) | binds
2 | B1 | binds
3 | B2 | binds
4 | B3 | binds
5 | B4 | binds
